In PubChem BioAssay AID2685 (National Center for Advancing Translational Sciences (NCATS), 2010) one finds AC50 and cell number change data, which are given here for 62 molecules.

The nature of the assay: qHTS Assay for Lipid Storage Modulators in Drosophila S3 Cells.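 On cell number change: cells counted by Cell Tracker Red CMTPX staining in the red channel.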 Particulars: BODIPY lipid droplet fluorescence, 18-24 h; for cell number change: measured here: cell count max response, cells fed with added oleic acid. The procedure, abridged:
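Laser-scanning cytometry quantifies lipid droplet accumulation (500–530 nm total intensity; droplet/cell object ratio) in oleic acid-fed (400 uM added) Drosophila S3 cells treated with a concentration series. 20 uM Triacsin C defined 100% inhibition.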
On the technique in general: qHTS replaces the single test concentration by a dilution series.

Where [1] appears, read: measured here: cell number channel AC50, cells fed with added oleic acid.
The mark [2] stands for this setting: measured here: lipid fluorescence (Fed channel) AC50, cells fed with added oleic acid.

The structures appear in SMILES notation. This is one part of the list. Shown are side measurements of this screen, not its main read-out; they come without a call. Most of these compounds were active or inconclusive in the main read-out, so they are no random draw. Words in brackets tell the shape of the fitted curve; partial curves, single points and poor fits give uncertain potencies.

On to `CCOC(=O)C1CCN(C(c2cc3ccc(C)cc3[nH]c2=O)c2nnnn2C2CCCCC2)CC1` (stereo unspecified), for which the AC50 (as a rule, the concentration giving half of the maximal activity seen) under setting [1] was 5.17 µM [rising, single point].
As to `CC(C)c1ccc(OCC(=O)NC(=S)Nc2ccc3c4c(cccc24)CC3)cc1`, the cell number change was determined as 7.35%. The AC50 under setting [2] is 18.4 µM [rising, partial curve].
Consider `CCOC(=O)c1cn(Cc2ccccc2)c2cc(C)nn2c1=O`, for which the cell number change came out at 14.4%. For the same molecule, the AC50 under setting [1] was 6.51 µM [falling, single point]. Under setting [2], the AC50 is 6.51 µM [falling, single point].
For `COc1ccc(NC(=O)CSc2ccc3nnc(-c4ccccn4)n3n2)cc1`, the cell number change was 7.51%. Besides, the AC50 under setting [2] is 6.51 µM [falling, single point].
For `Cc1ccc(-c2nc3ncccc3o2)cc1NC(=O)c1ccccc1`, the cell number change is 11.4%. Under setting [1], the AC50 was 6.51 µM [falling, single point].
As to `Cc1nnc(SCC(=O)NC(=O)NC2CCCC2)n1N`, the cell number change was -15.7%. The AC50 under setting [1] was 0.731 µM [falling, full curve, poor fit]. The AC50 under setting [2] was 3.26 µM [falling, partial curve, poor fit].
Regarding `Cc1ccc([N+](=O)[O-])cc1NC(=O)/C=C/C(=O)O`, the cell number change is -6.43%.
Consider `COC(=O)N/N=C/C1=CCC2CC1C2(C)C` (stereo unspecified), for which the cell number change was -66.9%. For the same molecule, the half-maximal activity concentration (AC50) under setting [1] is 11.6 µM [falling, partial curve].
As to `CCNCC(O)COCC(O)CNCC` (stereo unspecified), the cell number change is 0.415%. In addition, the AC50 under setting [1] was 6.51 µM [falling, partial curve, poor fit]. Further, the AC50 under setting [2] was 29.1 µM [falling, single point].
Consider `Cc1ccc(C(=O)Nc2ccc(Nc3ccccc3)cc2)c(Cl)c1`, for which the cell number change is -2.19%.
Regarding `CC(Cl)C(=O)NNC(=O)CNS(=O)(=O)c1ccccc1` (stereo unspecified), the cell number change was found to be 23.9%. For the same molecule, the AC50 under setting [2] is 4.11 µM [rising, full curve, poor fit].
Consider `Cc1c(C(=O)NC2CCN(Cc3ccccc3)C2)oc2ccc(Br)cc12` (stereo unspecified), for which the cell number change is 16.8%. The AC50 under setting [2] is 7.31 µM [rising, partial curve].
For `Cc1cc(C)n(-c2ccc(C(=O)C(C#N)c3nc4ccccc4n3C)cc2)n1` (stereo unspecified), the cell number change was -9.55%.
Take `COc1cc(C(C)=O)ccc1OCC(=O)N1CCc2ccccc2C1`: the cell number change is -18.5%. In addition, the AC50 under setting [2] is 1.46 µM [falling, full curve].
For `CCOC(=O)CCSc1nc(N2CCOCC2)c2c(c1C#N)CC(C)(C)OC2`, the cell number change is -24.8%. Moreover, the AC50 under setting [2] is 0.651 µM [falling, single point].
Regarding `COc1ccc(OCc2nn3c(-c4ccco4)nnc3s2)cc1`, the cell number change is -19.5%. Moreover, under setting [2], the AC50 is 0.58 µM [rising, full curve, poor fit].
With `CC1(C)CC(=O)C2=C(C1)OC(/N=C/N1CCCC1)=C(C#N)C2c1ccccc1` (stereo unspecified), the AC50 under setting [1] was 0.731 µM [falling, single point] and the AC50 under setting [2] is 0.651 µM [falling, single point].
As for `CCCCNC(=O)CN1C(=O)c2cccc(N)c2C1=O`, the cell number change was -10.1%.
For the molecule `N#C/C(=C\c1c[nH]c2ccccc12)C(=O)Nc1ncc(Cc2ccc(Cl)cc2Cl)s1`, the cell number change was -24.4%. Further, the AC50 under setting [2] is 14.6 µM [falling, partial curve].
On to `CCOC(=O)C1=C(Nc2ccc(C)cc2)CC(C)(O)C(C(=O)OCC)C1c1ccccc1` (stereo unspecified), for which the cell number change was 17.9%. Further, the AC50 under setting [2] is 0.58 µM [falling, single point].
With `Cc1ccc(SCc2cc(=O)[nH]c(Nc3nc(C)c4ccc(C)cc4n3)n2)cc1`, the cell number change was -4.93%. Moreover, the AC50 under setting [2] is 0.58 µM [rising, full curve, poor fit].
For the molecule `O=C(CCN1CCCC1)c1cccs1`, the cell number change was -5.98%. Also, the AC50 under setting [2] is 0.0058 µM [falling, full curve, poor fit].
Take `Cc1cc2nc(C)c(=O)n(C)c2cc1C`: the cell number change worked out at 8.77%. Besides, the AC50 under setting [2] was 18.4 µM [rising, single point].
With `COc1c(Cl)ccc(Cl)c1C(=O)NCc1ccco1`, the cell number change came out at 21.1%. Besides, under setting [1], the AC50 was 0.651 µM [rising, full curve, poor fit].
As for `O=C(COc1ccccc1)NCC(=O)N/N=C/c1ccco1`, the AC50 under setting [2] was 7.31 µM [falling, partial curve].
On to `CC(=O)c1c(C)[nH]c(C(=O)OCc2nnc(-c3ccccc3)o2)c1C`, for which the AC50 is, setting by setting: under setting [1], 1.3 µM [rising, full curve]; under setting [2], 1.3 µM [rising, full curve].
With `CCC1CCCCN1CCCNC(=O)CCNC(=O)Cn1cnc2ccccc2c1=O` (stereo unspecified), the cell number change amounted to 16.2%.
For the molecule `CCC(Sc1nncn1C)C(=O)Nc1nnc(-c2ccc(Cl)cc2)s1` (stereo unspecified), under setting [1], the AC50 was 6.51 µM [falling, single point].
Regarding `O=S1(=O)CCO[C@H]2Cc3ccccc3[C@H]2N1Cc1cccc(C(F)(F)F)c1`, the cell number change was -16.5%. The AC50 under setting [2] was 29.1 µM [falling, single point].
Regarding `CCOc1ccccc1NC1=C(Cl)C(=O)N(c2ccc(OC)cc2)C1=O`, the cell number change is 19.9%.
As for `CC1CCCC(C)N1NC(=O)c1ccc(Cl)c(S(N)(=O)=O)c1` (stereo unspecified), the cell number change is -6.58%. In addition, the AC50 under setting [2] is 20.6 µM [falling, single point].
`CC(=O)Nc1cccc(C)c1`: the cell number change worked out at 19.3%. Also, the AC50 under setting [2] was 5.17 µM [rising, single point].
For `COc1ccc2c(c1OC)C(=O)N(c1cccc(C)c1)C2=O`, the cell number change is -9.94%. Moreover, the AC50 under setting [2] is 0.651 µM [rising, full curve, poor fit].
`CCOc1c(OC(C)=O)ccc(/C=C/c2ccc3cccc(OC)c3n2)c1[N+](=O)[O-]`: the cell number change is -27.4%. Further, the AC50 under setting [2] was 7.31 µM [falling, partial curve, poor fit].
Turning to `COc1ccc(N2CC(C(=O)OCC(=O)Nc3cccc(C)c3C)CC2=O)cc1` (stereo unspecified), the cell number change came to 15.3%. The AC50 under setting [2] is 6.51 µM [rising, partial curve, poor fit].
For `CCOC(=O)C1=C(CC)Nc2ccccc2N=C1NC(=O)Nc1ccc(Cl)c(Cl)c1`, the cell number change was -58.4%. The AC50 under setting [1] is 29.1 µM [falling, single point]. The AC50 under setting [2] is 3.66 µM [rising, partial curve].
Turning to `O=C(c1ccc(-n2cncn2)c([N+](=O)[O-])c1)N1CCN(S(=O)(=O)c2ccc(Br)cc2)CC1`, the cell number change is -25.8%. The AC50 under setting [2] was 29.1 µM [falling, single point].
Consider `CCc1ccc(CN(C)C(=O)CCc2nnc(CCc3ccccc3OC)o2)nc1`, for which the cell number change was -19.5%. Besides, the AC50 under setting [2] was 25.9 µM [falling, partial curve, poor fit].
In the case of `COc1ccc(N=Cc2c(O)[nH]c3ccccc23)cc1OC`, the cell number change was -62.8%. Further, under setting [1], the AC50 is 29.1 µM [falling, single point].
With `CCCCNC(=O)CSc1nc2ccsc2c(=O)n1C1CCN(C(=O)OCC)CC1`, under setting [2], the AC50 is 20.6 µM [rising, single point].
In the case of `Cc1ccn(CCC(=O)NC2CC(C)(C)Cc3c2cnn3-c2ccccc2C)n1` (stereo unspecified), the cell number change was -7.37%. For the same molecule, the AC50 under setting [2] was 6.51 µM [rising, single point].
Regarding `COc1ccc(CC(=O)Nc2cc(C)ccc2O)cc1OC`, the cell number change was -11.6%. For the same molecule, the AC50 under setting [2] is 20.6 µM [falling, partial curve, poor fit].
As for `CCOC(=O)c1cc(S(=O)(=O)NC2CCCCC2)cn1C`, the cell number change amounted to 0.33%.
Regarding `CC(=O)c1ccc(NC(=O)c2cc(Cl)sc2Cl)cc1`, the cell number change was determined as 19.3%. The AC50 under setting [2] was 0.13 µM [rising, full curve, poor fit].
With `O=C(CCCc1nc(-c2ccccc2Cl)no1)N1CCOCC1`, the cell number change is -43.8%.
Regarding `CC(C)=CCCC(C)CN1CCC(O)CC1` (stereo unspecified), the cell number change was -58.8%. In addition, the AC50 under setting [1] is 0.366 µM [falling, full curve]. Under setting [2], the concentration at half-maximal activity (AC50) is 0.517 µM [falling, full curve].
Turning to `Cc1ccc(N2CC(NS(=O)(=O)c3cccnc3)CC2=O)cc1C` (stereo unspecified), the AC50 under setting [2] is 0.146 µM [rising, full curve, poor fit].
As for `Cc1ccc(Nc2nc(N)c([N+](=O)[O-])c(NCc3ccco3)n2)cc1`, the cell number change is -41.8%. The AC50 under setting [1] was 6.51 µM [falling, partial curve]. For the same molecule, the AC50 under setting [2] is 32.6 µM [falling, partial curve, poor fit].
As to `COC(=O)Cc1nnc(NC(=O)C(C)C)s1`, the cell number change was determined as 38.6%. In addition, the AC50 under setting [1] is 18.4 µM [rising, single point].
Take `c1ccc(OCCOCCSc2ncccn2)cc1`: the AC50 under setting [2] is 0.103 µM [falling, full curve, poor fit].
As to `Cc1c(NC(=O)CN2C(=O)NC(C)(c3ccccc3)C2=O)c(=O)n(-c2ccccc2)n1C` (stereo unspecified), the cell number change was 28.2%. Besides, the AC50 under setting [2] is 1.03 µM [rising, partial curve, poor fit].
Turning to `Cc1cc(C)c(OCC(=O)N/N=C/c2ccc3c(c2)OCO3)c(C)c1`, the cell number change was -20.4%. The AC50 under setting [2] is 18.4 µM [falling, single point].
For `Cc1cnc(C(=O)OC(C)C(=O)Nc2ccc3c(c2)OCCO3)cn1` (stereo unspecified), the cell number change was found to be 26.1%. Under setting [1], the AC50 was 0.92 µM [rising, full curve, poor fit].
With `CCc1ccc(/C=C2/C(=O)N(C)C(=S)N2CC(=O)OC)s1`, the cell number change was -53.9%. Further, under setting [1], the AC50 is 29.1 µM [falling, single point].
As for `CC1(C)CC=C(NNC(=O)c2cccnc2)C(=O)C1`, the cell number change was -12.1%.
In the case of `CC[N+]1(CC)CC2CCC(C)(C1)C2(C)C` (stereo unspecified), the cell number change came out at 36.3%. Further, the AC50 under setting [1] was 3.66 µM [rising, full curve]. Moreover, the AC50 under setting [2] was 11.6 µM [rising, single point].
On to `CCc1c(C)nc2c(C#N)c[nH]n2c1=O`, for which the cell number change is -3%. For the same molecule, the AC50 under setting [2] was 4.11 µM [rising, full curve, poor fit].
As for `CC(OC(=O)c1cc2sccc2n1C)C(=O)NCc1ccc(F)cc1` (stereo unspecified), the cell number change is 89.1%. For the same molecule, the AC50 under setting [1] is 18.4 µM [rising, single point]. For the same molecule, the AC50 under setting [2] was 0.651 µM [rising, single point].
As to `CCN(C(C)=O)c1nnc(CSc2nc3ccccc3s2)s1`, the cell number change is -8.05%.
In the case of `CC(C)(C)c1cc(NC(=O)CSc2nnc(NCc3ccccc3)s2)n(-c2ccccc2)n1`, the AC50 is 3.66 µM [falling, single point] under setting [1] and 2.59 µM [falling, partial curve] under setting [2].
Take `CN(C)CCC(=O)c1ccc(F)cc1`: the cell number change amounted to 24.1%. Under setting [1], the AC50 is 4.11 µM [rising, single point].
As to `CCO[C@H]1OC(C(=O)NCc2nc3ccccc3[nH]2)=C[C@@H](c2ccc(C(F)(F)F)cc2)[C@@H]1CCCO`, the cell number change was -0.397%. The AC50 under setting [2] was 16.4 µM [falling, single point].
